Results are given in words; binding and its absence hold for the method and conditions named. In cells and extracts the contact can be indirect. Here binding means that the protein was enriched with, or labelled near, the bait; the list need not be complete.
Biological target: PIP1-HA (HA-glmS fusion of PhIL1 interacting protein-1, PF3D7_1355600) (P. falciparum) (UniProt Q8IDE6)
Assay: affinity purification with mass spectrometry; extracts of PIP1-HA-glmS parasites solubilised in 1% Triton X-100, anti-HA agarose beads, in-solution tryptic digestion, mass spectrometry; two independent experiments, wild type 3D7 as control

The chains behind the UniProt entries cited, without tags or fusion partners. Where a name states a change or a piece, a line headed by the entry shows the natural chain unless it says otherwise.
UniProt Q8IDE6: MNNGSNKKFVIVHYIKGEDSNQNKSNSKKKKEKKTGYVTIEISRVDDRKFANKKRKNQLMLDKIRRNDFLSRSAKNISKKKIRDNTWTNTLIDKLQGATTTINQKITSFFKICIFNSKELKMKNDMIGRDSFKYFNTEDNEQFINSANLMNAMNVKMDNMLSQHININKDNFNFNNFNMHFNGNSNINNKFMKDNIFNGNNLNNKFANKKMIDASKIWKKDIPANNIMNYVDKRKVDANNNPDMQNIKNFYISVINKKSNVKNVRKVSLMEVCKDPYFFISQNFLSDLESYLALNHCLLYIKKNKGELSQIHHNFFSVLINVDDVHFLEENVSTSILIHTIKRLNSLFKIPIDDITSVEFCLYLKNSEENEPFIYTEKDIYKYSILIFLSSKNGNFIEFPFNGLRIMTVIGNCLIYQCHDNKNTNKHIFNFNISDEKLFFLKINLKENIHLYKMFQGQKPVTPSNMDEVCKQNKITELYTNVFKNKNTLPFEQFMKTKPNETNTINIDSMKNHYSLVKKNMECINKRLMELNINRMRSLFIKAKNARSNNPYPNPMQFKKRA
UniProt Q8ILF4: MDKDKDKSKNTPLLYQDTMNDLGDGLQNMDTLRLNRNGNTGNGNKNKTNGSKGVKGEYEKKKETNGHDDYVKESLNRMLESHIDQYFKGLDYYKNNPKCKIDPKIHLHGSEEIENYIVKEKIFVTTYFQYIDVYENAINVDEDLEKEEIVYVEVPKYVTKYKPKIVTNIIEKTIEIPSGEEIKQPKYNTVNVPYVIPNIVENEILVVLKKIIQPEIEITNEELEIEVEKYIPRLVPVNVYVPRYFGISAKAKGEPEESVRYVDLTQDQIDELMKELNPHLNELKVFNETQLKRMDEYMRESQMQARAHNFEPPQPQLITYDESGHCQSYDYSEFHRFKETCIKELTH

binding: binds
Substance: PhIL1 Interacting Protein 2 (PIP2, PF3D7_1431100) (from UniProt Q8ILF4)
